In article PMC6826936:
These are yes or no findings as the source states them, for the method shown. Binding seen in cells or lysates may run through a third protein. Some entries that bind do so weakly or less than the wild type.

Molecular target: SETDB1, endogenous in mouse ESCs (mouse (endogenous in HM1 mESCs)) (UniProt O88974)
Assay: co-IP; 500 ug nuclear extract of HM1 mESCs (micrococcal nuclease, sonication), 5 ug antibody to SETDB1 or MPP8, overnight 4 C, protein A/G beads, washes with 150 mM NaCl, 0.5% Triton X-100; Western blot; IgG as negative control

B1: MPP8 (M-Phase Phosphoprotein 8), endogenous in mouse ESCs (protein, UniProt Q3TYA6 1-858)
chain: MAAAAEEGMSAAALVMSVPDSIGRSPESEGVGAGDEEKDAATKGTVAVGDSEEDGEDVFEVERILDMKCEGGKNLYKVRWKGYTSEDDTWEPEVHLEDCKEVLLEFRKKLAENKAKAVRKDIQRLSLNNDIFEADSDSDQQSDTKEDISPRKKKKKIKCKEETSPEDLRKKRTKMGKLKDKFKTELESTSEIIGFDVKTKKRIWEVKEELKDSKKPKKDEIKETKELKKANKRAEVRDLKIKIREDVKENRKTKKERYIESPLESESPNDSLILEDDSEDFISDNREENQNVRSVRDKTAQETVQEGIFEKHLDDLISIEEDAGTRVRRKKTKPRKFEEPKEIKKLESTNAFLERRAIPKKQRNQDKGISNLELNKLPSPVFAQTLKSSRLSGEEKSLKSPDLAEEEKEKKNEPKGKYQKRYDLDKEEKARKEPKVLKSFKEIRNAFDLFKKTTEEKNDVLENNSKREEISLDSKIMNDNKTKDKCSLKEKRNTRDETDTWAYIAAEGDQEVSDSVCQTDETSDGRQPVLSLGMDLQLEWMKLEDFQKHLDGEDEPFITTNRIPNNLLRDAVKNGDYIAVKVALNSNEEYNLDQEDSTGMTLVMLAAAGGQDDLLRLLITKGAKVNGRQKNGTTALIHAAEKNFLTTVAILLEAGAFVNVQQSNGETALMKACKRGNSDIVRLVIECGADCNILSKHQNSALYFAKQCNNVLVYELLKSHLETLSRVAEETIRDYFESRLALLEPVFPIACHRLCEGPDFSTDFNYMPPQNMPEGSGVLLFIFHANFLGKDVIARLCGPCSVQAVVLNDKFQLPVFLDSHFVYSFSPVAGPNKLFIRLTEAPFAKVKLLIGAYRVQLQ
Q: Which binding does the source give for B1 here?
A: Its binding is “binds”.
